For series [1], the system named is antibody raised against Immunogen-2. The series is described as follows: Competitive ELISA with polyclonal antibody raised against Immunogen-2, Tracer-1 as detecting agent. It is filed as binding, sheep. The protocol: Pre-immunization blood samples are collected from sheep. In order to generate polyclonal antisera, 2 mgs of the immunogen (structure 1) is prepared in PBS, mixed at a ratio of 50% immunogen in PBS to 50% Freund's Complete adjuvant (Sigma, Product Number F5881) and emulsified by repeatedly passing the mixture through a tip on the end of a 1 ml syringe, until it reaches the required semi-solid consistency. 1.1 ml of the emulsified mixture is injected intramuscularly into each host animal (sheep) as the primary immunisation dose. Further injections (boosts) are prepared (1 mg of immunogen is prepared in PBS and mixed at a ratio of 50% Immunogen in PBS/50% Freunds Incomplete adjuvant, Sigma, Product Number—F5506). Boost injections are delivered intramuscularly at monthly intervals, 1 ml per animal. Serum is sampled monthly by collection of whole blood from the jugular vein for evaluation of the antibody titre. The degree of antibody purification required depends on the intended application. For many purposes, there is no requirement for purification of the serum, however, in other cases, such as, where the antibody is to be immobilised on a solid support, purification steps (such as caprylic acid/ammonium sulphate precipitation) can be taken to remove undesired material and eliminate non-specific binding. In another embodiment, the purification is by immunoglobulin precipitation, antigen-specific affinity purification, column chromatography, such as, size-exclusion chromatography or ion exchange chromatography.
The polyclonal antibody raised against Immunogen-2 of Example 9 was removed from fridge or freezer and brought to room temperature. The antibody was diluted to 2.5 μg/ml in 10 mM Tris pH 8.5 and all appropriate wells are coated at 125 μl/well at 37° C. for 2 hours or at 4° C. overnight. The plate was washed 4 times over a period of 10 minutes with working strength tris-buffered saline and tween 20 (TBST) wash buffer and tapped dry. 50 μl of working strength TBST was pipetted into the appropriate wells. Dilutions of target analyte and potential crossreactant(s) were prepared in working strength TBST and pipetted (50 μl) into the appropriate wells beginning with the lowest concentration to the highest concentration. Hapten-HRP (Tracer-1) conjugate at the appropriate concentration was prepared in conjugate dilution buffer and 75 μl into pipetted into appropriate wells. The plate was tapped gently to mix contents, sealed and incubated at 25° C. for 1 hour. The plate was washed 6 times over a 10-15 minute period (3 quick washes followed by 3 additional washes over 12 minutes) and tapped dry thoroughly onto tissue paper. Trimethylbenzidine (TMB) solution (125 μl) was added to each well and tapped gently, and the plate was incubated at room temperature for 20 minutes in the dark. The reaction was stopped by addition of 125 μl of 0.2 M sulphuric acid to each well and the absorbance measured at 450 nm using an ELISA plate reader (Biotek Elx800).

For series [2], the system named is antibody specific to mitragynine. The series is described as follows: ELISA for mitragynine and 8-desmethylmitragynine (polyclonal antibody to mitragynine). Type of series: binding. From the text: In one embodiment, the antibodies and immunoassay methods and kits for mitragynine (kratom), are as described in U.S. patent application Ser. No. 14/184,422, filed Feb. 19, 2014 entitled “Immunoassay for Detecting Kratom, its Constituents and their Use” the entire contents of which are incorporated herein by reference. In particular, U.S. patent application Ser. No. 14/184,422 describes a polyclonal antibody which that binds specifically to an epitope of one or more of mitragynine, 8-desmethylmitragynine, 8-sulphonylmitragynine, and 8-glucuronidylmitragynine which was raised to an immunogen having the structure of:
[drawing 5] • wherein HRP is horseradish peroxidase.

With `CNC[C@@H]1CCCC[C@@]1(O)c1cccc(OC)c1` (racemic) [N-Desmethyltramadol, (±)-cis-2-[(methylamino)methyl]-1-(3-methoxyphenyl)cyclohexanol], the A450 in series [1] (0.156 ng/ml analyte) stood at 1.884; in series [1] (0.313 ng/ml analyte) it was 1.891; in series [1] (0.625 ng/ml analyte), 1.917; in series [1] (1.250 ng/ml analyte), 1.930; in series [1] (2.500 ng/ml analyte), 1.908; in series [1] (5.000 ng/ml analyte), 1.885. Also, the A450 in series [1] (10.000 ng/ml analyte) was 1.896.
As for `CC[C@@H]1CN2CCc3c([nH]c4cccc(O)c34)[C@@H]2C[C@@H]1/C(=C\OC)C(=O)OC` [8-Desmethylmitragynine, 8-desmethylmitragynine], the A450 came to 1.116 in series [2] (0.313 ng/ml analyte); 0.956 in series [2] (0.625 ng/ml analyte); 0.816 in series [2] (1.250 ng/ml analyte); 0.633 in series [2] (2.500 ng/ml analyte); 0.441 in series [2] (5.000 ng/ml analyte); 0.279 in series [2] (10.000 ng/ml analyte). This compound gave an A450 in series [2] (20.000 ng/ml analyte) of 0.191.
Consider `CC[C@@H]1CN2CCc3c([nH]c4cccc(OC)c34)[C@@H]2C[C@@H]1/C(=C\OC)C(=O)OC` [Mitragynine, mitragynine], for which the A450 is on record as 1.216 in series [2] (0.313 ng/ml analyte); 1.012 in series [2] (0.625 ng/ml analyte); 0.787 in series [2] (1.250 ng/ml analyte); 0.590 in series [2] (2.500 ng/ml analyte); 0.401 in series [2] (5.000 ng/ml analyte); 0.273 in series [2] (10.000 ng/ml analyte). The compound also returned an A450 in series [2] (20.000 ng/ml analyte) of 0.177.
On to “(±)-cis-2-[(dimethylamino)methyl]-1-(3 hydroxyphenyl)-cyclohexanol [O-Desmethyltramadol]”, for which the A450 amounted to 1.049 in series [1] (0.156 ng/ml analyte); 0.735 in series [1] (0.313 ng/ml analyte); 0.479 in series [1] (0.625 ng/ml analyte); 0.308 in series [1] (1.250 ng/ml analyte); 0.193 in series [1] (2.500 ng/ml analyte); 0.122 in series [1] (5.000 ng/ml analyte). The A450 in series [1] (10.000 ng/ml analyte) was 0.076.

The values above are taken from patent US10416175B2, “Opioid detection” (Randox Laboratories Limited, priority 2015, dated 2019).
